The list is a part of this screen's results and no random one: it is rich in T/C values a quarter to a half above the control, in often repeated tests (any T/C) and in doses without a T/C. Other doses and runs of a compound stand elsewhere. T/C gives the treated animals as a percentage of the vehicle group. Some entries give survivors of the animals treated and no T/C: the source files T/C as zero there, which appears to mark a toxic dose or a test without result, not a measured value. Some survivor counts are full or nearly so, which does not show that the dose was tolerated: the source hardly ever lists a survival T/C far under the control, and the zero likely stands for such cases as well. Survivors were counted at the toxicity check, usually on the fifth day, unless a day is given; later deaths do not show. Schedules are NCI's codes, read here as Q, the interval in days (D) or hours (H), X, the number of doses. Some entries hold several experiments; the results are listed from low to high. Where survival is the endpoint, this PubChem deposit counts one and a half times the control or more as active, and values a quarter to a half above the control carry no call in these data; other NCI protocols may use other cut-offs. Some T/C values are followed by the survivors on the day toxicity was checked, most often the fifth; where none is given, no animal had died by that day.
Tested on: B6C3F1 mice, Lewis lung carcinoma iv, survival T/C
Experiment: NCI In Vivo Anticancer Drug Screen. Data for tumor model Lewis Lung Carcinoma (intravenous) in B6C3F1 mice
Details: T/C endpoint: median survival time, higher T/C = longer survival
Procedure, shortened: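 Tumors were transplanted into mice, which were then dosed with compound or vehicle. Survival was recorded in each group, and the treated figure was divided by the control figure.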

[1] = dose: 100.0 mg/kg/injection, schedule: Q01DX009 (ip), vehicle: saline with Tween-80
[2] = dose: 200.0 mg/kg/injection, schedule: Q01DX009 (ip), vehicle: Klucel (hydroxypropylcellulose) (HPC)
[3] = dose: 400.0 mg/kg/injection, schedule: Q01DX009 (ip), vehicle: saline
[4] = dose: 6.25 mg/kg/injection, schedule: Q01DX009 (ip), vehicle: water
[5] = dose: 12.5 mg/kg/injection, schedule: Q01DX009 (ip), vehicle: water
[6] = dose: 25.0 mg/kg/injection, schedule: Q01DX009 (ip), vehicle: water
[7] = dose: 25.0 mg/kg/injection, schedule: Q01DX009 (ip), vehicle: distilled water + Tween-80
[8] = dose: 200.0 mg/kg/injection, schedule: Q01DX009 (ip), vehicle: saline with Tween-80
[9] = dose: 100.0 mg/kg/injection, schedule: Q01DX009 (ip), vehicle: Klucel (hydroxypropylcellulose) (HPC)
[10] = dose: 200.0 mg/kg/injection, schedule: Q01DX009 (ip), vehicle: saline
[11] = dose: 6.0 mg/kg/injection, schedule: Q01DX009 (ip), vehicle: water
[12] = dose: 24.0 mg/kg/injection, schedule: Q01DX009 (ip), vehicle: water
[13] = dose: 12.5 mg/kg/injection, schedule: Q01DX009 (ip), vehicle: saline with Tween-80
[14] = dose: 400.0 mg/kg/injection, schedule: Q01DX009 (ip), vehicle: saline with Tween-80

`O=C(O)CCCCCCCC(=O)O` was tested, and the survivor count (dose: 200.0 mg/kg/injection, schedule: Q01DX009 (ip), vehicle: distilled water + Tween-80) was 6 of 10 and the survivor count (dose: 400.0 mg/kg/injection, schedule: Q01DX009 (ip), vehicle: distilled water + Tween-80) was 2 of 10.

For `CCN(CC)Cc1cc2[nH]c3c4ccc(Cl)cc4ncc3c2cc1OC`, the survivor count [1] was 2 of 10.

For `CN(C)c1ccc2c(NCCCCCCNc3ccnc4cc(N(C)C)ccc34)ccnc2c1`, the survivor count (dose: 50.0 mg/kg/injection, schedule: Q01DX009 (ip), vehicle: distilled water + Tween-80 + alcohol) was 6 of 10.

For `CCNC(=O)[B-][N+](C)(C)C`, the survivor count [2] was 7 of 10.

In the case of `CCOC(=O)C(N)CSC(=O)NC` (configuration not stated), the survivor count [3] is reported as 8 of 10.

In the case of `CC1(C)CC23C4COC(=O)C2CCC1C3CC4=O` (configuration not stated), the survivor count (dose: 96.0 mg/kg/injection, schedule: Q01DX009 (ip), vehicle: DMSO) is reported as 10 of 10 and the survivor count (dose: 192.0 mg/kg/injection, schedule: Q01DX009 (ip), vehicle: DMSO) is reported as 1 of 10.

For `BrC1CC(Br)c2c1c1c(c3c2C(Br)CC3Br)C(Br)CC1Br` (configuration not stated), the T/C [1] was 126 % of control.

For `NC(=O)c1ccc(N)nc1`, the T/C (dose: 2.0 mg/kg/injection, schedule: Q01DX009 (ip), vehicle: saline) was 145 % of control and the survivor count (dose: 4.0 mg/kg/injection, schedule: Q01DX009 (ip), vehicle: saline) was 10 of 10.

`CCOC(=O)C1=C(C#N)C2(CCC(OCc3ccccc3)CC2)C(=O)O1` (configuration not stated) was tested, and the survivor count (dose: 400.0 mg/kg/injection, schedule: Q01DX009 (ip), vehicle: suspension in saline) was 9 of 10.

In the case of `O=NN(CCCl)C(=O)NCCO`, the T/C (dose: 1.56 mg/kg/injection, schedule: Q01DX009 (ip), vehicle: water) is reported as 129, 134, 143 % of control [9 of 10 alive], the T/C [4] is reported as 128 % of control and the T/C [5] is reported as 141 % of control. The survivor count [5] was 9 of 10, the survivor count [6] was 7 of 10 and 10 of 10 and the survivor count (dose: 50.0 mg/kg/injection, schedule: Q01DX009 (ip), vehicle: water) was 9 of 10.

For `C#CCNC1=C(C)C(=O)C2=C(C1=O)[C@H](COC(N)=O)[C@]1(OC)[C@@H]3N[C@@H]3CN21`, the survivor count (dose: 12.5 mg/kg/injection, schedule: Q01DX009 (ip), vehicle: distilled water + Tween-80) was 10 of 10, the survivor count [7] was 10 of 10 and the survivor count (dose: 50.0 mg/kg/injection, schedule: Q01DX009 (ip), vehicle: distilled water + Tween-80) was 3 of 10. For the same compound, the survivor count (dose: 100.0 mg/kg/injection, schedule: Q01DX009 (ip), vehicle: distilled water + Tween-80) was 0 of 10.

For `COc1ccc2c(ccc3oc([N+](=O)[O-])cc32)c1`, the survivor count [8] was 10 of 10.

In the case of `N=C(N)CCCCCCCCC(=N)N`, the survivor count (dose: 25.0 mg/kg/injection, schedule: Q01DX009 (ip), vehicle: saline) is reported as 6 of 10, the survivor count (dose: 100.0 mg/kg/injection, schedule: Q01DX001 (ip), vehicle: saline) is reported as 0 of 10 and the survivor count (dose: 200.0 mg/kg/injection, schedule: Q01DX001 (ip), vehicle: saline) is reported as 0 of 10.

For `COc1ccc(Cl)[n+]([O-])n1`, the survivor count [9] was 8 of 10.

With `CO[C@H](/C(C)=C/C=C/C(C)=C/c1coc(C)n1)[C@H](C)[C@H]1C[C@@H](O)[C@@]2(C)O[C@H]2/C=C/[C@@H](C)[C@@H]2C[C@@H](CC(=O)O2)C[C@H]2O[C@@H]2C(=O)O1` the survivor count (dose: 160.0 micrograms/kg/injection, schedule: Q01DX009 (ip), vehicle: Klucel (hydroxypropylcellulose) (HPC)) was 10 of 10.

`CC(C)NCC(O)COc1ccc(O)c(O)c1` (configuration not stated) was tested, and the survivor count [10] was 0 of 10 and the survivor count [3] was 0 of 10.

In the case of `COc1cc(C2c3cc4c(cc3[C@@H](OC3OC5CO[C@@H](C)OC5C(O)C3O)[C@H]3COC(=O)C23)OCO4)cc(OC)c1OC` (some centres not stated), the survivor count [10] is reported as 8 of 8.

In the case of `COc1cccc2c1C(=O)c1c(O)c3c(c(O)c1C2=O)C[C@@](O)(C(=O)CO)C[C@@H]3OC1CC(OC(C)=O)C(OC(C)=O)C(C)O1` (some centres not stated), the T/C [11] is reported as 133 % of control, the T/C (dose: 6.25 mg/kg/injection, schedule: Q01DX009 (ip), vehicle: distilled water + Tween-80) is reported as 133 % of control [9 of 10 alive] and the T/C [4] is reported as 145 % of control. For the same compound, the survivor count [5] was 9 of 10, the survivor count [12] was 10 of 10 and the survivor count [7] was 10 of 10. The survivor count [6] was 10 of 10.

With `Cn1cc(C2NC(=O)c3ccccc3N2)c2ccccc21` (configuration not stated) the survivor count (dose: 400.0 mg/kg/injection, schedule: Q01DX009 (ip), vehicle: Klucel (hydroxypropylcellulose) (HPC)) was 6 of 10.

In the case of `COc1cccc2c1C(=O)c1c(O)c3c(c(O)c1C2=O)CC(O)(/C(C)=N/NC(=O)CCCCC(=O)N/N=C(\C)C1(O)Cc2c(O)c4c(c(O)c2C(OC2CC(N)C(O)C(C)O2)C1)C(=O)c1c(OC)cccc1C4=O)CC3OC1CC(N)C(O)C(C)O1` (configuration not stated), the survivor count [5] is reported as 10 of 10 and the survivor count [6] is reported as 10 of 10.

In the case of `CCCCNc1ccc2nnc(C)n2n1`, the survivor count (dose: 400.0 mg/kg/injection, schedule: Q01DX009 (ip), vehicle: DMSO) is reported as 0 of 10 and the survivor count (dose: 800.0 mg/kg/injection, schedule: Q01DX009 (ip), vehicle: DMSO) is reported as 0 of 10.

For `CC(=O)[C@]1(O)Cc2c(O)c3c(c(O)c2[C@@H](OC2CC(N)C(O)C(C)O2)C1)C(=O)c1c(O)cccc1C3=O` (some centres not stated), the survivor count (dose: 0.5 mg/kg/injection, schedule: Q01DX009 (ip), vehicle: saline) was 10 of 10 and the survivor count (dose: 1.0 mg/kg/injection, schedule: Q01DX009 (ip), vehicle: saline) was 9 of 10.

For `CSc1ncnc2c1ncn2C1OC(CO)C(O)C1O` (configuration not stated), the survivor count (dose: 100.0 mg/kg/injection, schedule: Q01DX009 (ip), vehicle: saline + alcohol) was 7 of 10.

In the case of `COc1cccc2c1C(=O)c1c(O)c3c(c(O)c1C2=O)C[C@@](O)(C(C)=O)C[C@@H]3OC1CC(N(Cc2ccccc2)Cc2ccccc2)C(O)C(C)O1` (some centres not stated), the T/C [11] is reported as 143 % of control, the T/C (dose: 12.0 mg/kg/injection, schedule: Q01DX009 (ip), vehicle: saline with Tween-80) is reported as 134 % of control and the T/C (dose: 12.0 mg/kg/injection, schedule: Q01DX009 (ip), vehicle: water) is reported as 130 % of control. For the same compound, the T/C [13] was 136 % of control, the survivor count [13] was 9 of 10 and the survivor count (dose: 24.0 mg/kg/injection, schedule: Q01DX009 (ip), vehicle: saline with Tween-80) was 10 of 10. For the same compound, the survivor count [12] was 10 of 10, the survivor count (dose: 25.0 mg/kg/injection, schedule: Q01DX009 (ip), vehicle: saline with Tween-80) was 10 of 10 and the survivor count (dose: 48.0 mg/kg/injection, schedule: Q01DX009 (ip), vehicle: saline with Tween-80) was 10 of 10. The survivor count (dose: 48.0 mg/kg/injection, schedule: Q01DX009 (ip), vehicle: water) was 10 of 10, the survivor count (dose: 50.0 mg/kg/injection, schedule: Q01DX009 (ip), vehicle: saline with Tween-80) was 8 of 10 and the survivor count [1] was 3 of 10.

In the case of `CC(=O)OC1=NC(C)c2c1cc(OC(C)=O)[nH]c2=O` (configuration not stated), the survivor count [9] is reported as 3 of 10 and the survivor count [2] is reported as 0 of 10.

`CCCCNC(C)[C@]1(O)Cc2c(O)c3c(c(O)c2[C@@H](OC2CC(N)C(O)C(C)O2)C1)C(=O)c1c(OC)cccc1C3=O` (some centres not stated) was tested, and the survivor count (dose: 10.0 mg/kg/injection, schedule: Q01DX009 (ip), vehicle: water) was 10 of 10.

For `NC(=S)N/N=C/c1ccc(OC(=O)COc2ccc(Cl)cc2)cn1`, the survivor count [8] was 10 of 10, the T/C [14] was 137 % of control and the survivor count [14] was 10 of 10.

In the case of `CC(/C=C/c1ccccc1)=Nc1ccccc1`, the survivor count [14] is reported as 8 of 10.

In the case of `O=NN(CCCl)C(=O)NC1CCC(=O)NC1=O` (configuration not stated), the T/C (dose: 2.0 mg/kg/injection, schedule: Q01DX009 (ip), vehicle: saline with Tween-80) is reported as 139 % of control.

With `CCCCCCCCCCCCCCCCP(=O)(OCCOCCCCCC)OCCOCCCCCC` the survivor count (dose: 100.0 mg/kg/injection, schedule: Q01DX009 (ip), vehicle: suspension in saline) was 1 of 10.
